Measurements taken from US20190175598A1, “COMBINATION THERAPIES FOR THE TREATMENT OF HEPATOCELLULAR CARCINOMA” (Eisai R&D Management Co., Ltd., priority 2016, published 2019).
Some results were stated once for a whole list of compounds, not compound by compound.

Key:
[1] = test system: human hepatocellular cancer cell line JHH7 xenograft; experiment: JHH7 xenograft model of hepatocellular carcinoma, antitumor activity; assay type: in vivo, mice; conditions: PO QD 8 days, all groups
Procedure: The cell line used, JHH7, was sourced from Japanese Collection of Research Bioresources Cell Bank (JCRB), verified free of mycobacterium contamination and verified for identity by short tandem repeat analysis of 9 markers.
JHH7 cells were maintained in William's E Medium (Thermo Fisher Scientific, 12551-032) with 10% fetal bovine serum. Cells were maintained prior to and during experiments at 37° C. 5% CO2, and at 95% relative humidity. Cell passage number was limited to between 12 and 20.
The human hepatocellular cancer cell line JHH7 was cultured in William's E Medium (Thermo Fisher Scientific, 12551-032) containing 10% fetal bovine serum at 37° C. in a 5% CO2 atmosphere and kept in exponential growth phase. For harvesting, the cells were washed with phosphate buffered saline, incubated with 0.25% trypsin-EDTA, and suspended in a 1:1 mixture of William's E Medium and Matrigel (Corning) at a final concentration of 5×10^7 cells/mL. […] The administration volume (0.1 mL/10 g body weight) was calculated from the individual mouse body weight (BW) before administration. Body weights were measured daily and tumor measurements were performed twice weekly. […]
(§1) Data are expressed as the mean±SEM for Tumor Volume (TV). The differences in TV between groups were analyzed by two way ANOVA followed by Sidak post hoc test. […]

[2] = test system: human primary hepatocellular carcinoma model LIX066; experiment: LIX066 patient derived xenograft model of hepatocellular carcinoma, antitumor activity; assay type: in vivo, mice; conditions: Example 3, 17 days
Procedure: The human primary hepatocellular carcinoma model LIX066 model from ChemPartner (shangpharma.com) were implanted into the female severe combined immunodeficiency (SCID) mice. When the tumors developed in mice, the mice were sacrificed and the tumors were resected and implanted into female nude mice for tumor preservation, histopathology diagnosis and in vivo efficacy study. Solid tumor tissues were depleted of necrotic components, cut into 10-15 mg pieces, and mixed. Three to five pieces were mixed with […] Matrigel and implanted into a flank of 6-8-week-old female NU/NU immune compromised mice weighing 18-20 g nude mice. 30 mice with average tumor volume of 160 mm^3 selected and randomized into 6 groups of 5 mice each. All of the primary human tumors utilized in this study had undergone 3-5 passages in vivo and the tumor histology of each was maintained over the serial transplantation process. […] The administration volume (0.1 mL/10 g body weight) was calculated from the individual mouse body weight (BW) before administration. Body weights were measured daily and tumor measurements were performed twice weekly. […]
as §1

C=CC(=O)Nc1cc(N2CCN(CC)CC2)ccc1Nc1cc(N(C)C(=O)Nc2c(Cl)c(OC)cc(OC)c2Cl)ncn1 [Compound 1, N-(2-((6-(3-(2,6-dichloro-3,5-dimethoxyphenyl)-1-methylureido)pyrimidin-4-yl)amino)-5-(4-ethylpiperazin-1-yl)phenyl)acrylamide]
tumor response (Xenograft Model Response Criteria) ([1]; Example 1, Compound 1 300 or 500 mg/kg as single agent or in combination with ribociclib 75 or 150 mg/kg): PD (Progressive disease (PD): 3 consecutive measurements >120% of starting volume or 3 consecutive increasing measurements from best response)
tumor response (Xenograft Model Response Criteria) ([1]; Example 2, Compound 1 300 or 500 mg/kg as single agent or in combination with palbociclib 50 or 100 mg/kg): PD (Progressive disease (PD): 3 consecutive measurements >120% of starting volume or 3 consecutive increasing measurements from best response)
tumor response (Xenograft Model Response Criteria) ([2]; Compound 1 300 mg/kg and 500 mg/kg single agent groups, all animals): PD (Progressive disease (PD): 3 consecutive measurements >120% of starting volume or 3 consecutive increasing measurements from best response)

CC(=O)c1c(C)c2cnc(Nc3ccc(N4CCNCC4)cn3)nc2n(C2CCCC2)c1=O [Palbociclib, 6-acetyl-8-cyclopentyl-5-methyl-2-{[5-(piperazin-1-yl)pyridin-2-yl]amino}pyrido[2,3-d]pyrimidin-7(8H)-one, reference compound]
tumor response (Xenograft Model Response Criteria) ([2]; palbociclib 100 mg/kg single agent, all enrolled animals): PD (Progressive disease (PD): 3 consecutive measurements >120% of starting volume or 3 consecutive increasing measurements from best response)
